No constants are given. Whether binding was seen depends on the method and setting. Binding seen in cells or lysates may run through a third protein. Here binding means that the protein was enriched with, or labelled near, the bait; the list need not be complete. Sequences can lack the tags named with a protein.

The assay has as its target T1, LGR5-BirA fusion (LGR5 with the bacterial biotin-ligase BirA at its C-terminus) (UniProt O75473).
T1 sequence: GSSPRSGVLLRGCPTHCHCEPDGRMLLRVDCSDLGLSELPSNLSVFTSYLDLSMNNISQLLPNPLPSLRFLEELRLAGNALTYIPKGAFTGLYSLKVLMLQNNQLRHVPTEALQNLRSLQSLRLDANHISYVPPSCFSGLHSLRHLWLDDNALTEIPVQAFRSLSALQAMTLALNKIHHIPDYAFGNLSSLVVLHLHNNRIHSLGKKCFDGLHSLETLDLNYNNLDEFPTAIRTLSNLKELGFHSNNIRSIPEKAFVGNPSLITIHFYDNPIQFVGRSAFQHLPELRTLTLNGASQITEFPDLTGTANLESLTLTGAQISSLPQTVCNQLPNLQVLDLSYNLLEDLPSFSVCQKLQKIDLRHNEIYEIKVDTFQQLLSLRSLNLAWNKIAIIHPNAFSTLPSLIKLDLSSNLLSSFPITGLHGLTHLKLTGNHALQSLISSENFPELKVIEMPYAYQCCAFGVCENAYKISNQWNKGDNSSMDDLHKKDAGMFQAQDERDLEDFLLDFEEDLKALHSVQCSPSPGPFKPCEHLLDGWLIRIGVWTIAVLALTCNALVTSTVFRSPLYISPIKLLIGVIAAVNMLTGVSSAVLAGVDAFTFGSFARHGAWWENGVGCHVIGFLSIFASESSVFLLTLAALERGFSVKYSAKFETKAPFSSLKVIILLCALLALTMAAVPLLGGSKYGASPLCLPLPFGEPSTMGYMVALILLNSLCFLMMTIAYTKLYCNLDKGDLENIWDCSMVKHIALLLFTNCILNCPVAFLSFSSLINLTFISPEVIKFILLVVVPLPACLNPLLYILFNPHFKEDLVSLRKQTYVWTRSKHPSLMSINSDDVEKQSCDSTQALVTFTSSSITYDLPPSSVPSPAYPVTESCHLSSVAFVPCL
In words: proximity labelling.
For the substance AAK1 (from UniProt Q2M2I8 1-961), the binding entry is “binds”.

“Dishevelled2 (DVL2) (from UniProt O14641 1-736)”: the binding result was “binds”.

For the substance “G-protein-coupled receptor kinase 2 (GRK2) (from UniProt P25098 1-689) (enzyme)”, the binding result is “binds”.

Take “PKA-adapter Akap8 (from UniProt O43823 1-692)”: the binding result is listed as “binds”.

For “PKA-adapter Akap12 (from UniProt Q02952 1-1782)”, the binding result is recorded as “binds”.

Consider “β-arrestin (ARRB2) (from UniProt P32121 1-409)”, for which the binding result was “binds”.

Values taken from article doi:10.1101/2020.03.12.989277.
